Among the data in article PMC4536591 are binding values, retold here.

Amino acid sequences for entries named in this document (tags omitted).
UniProt P07355: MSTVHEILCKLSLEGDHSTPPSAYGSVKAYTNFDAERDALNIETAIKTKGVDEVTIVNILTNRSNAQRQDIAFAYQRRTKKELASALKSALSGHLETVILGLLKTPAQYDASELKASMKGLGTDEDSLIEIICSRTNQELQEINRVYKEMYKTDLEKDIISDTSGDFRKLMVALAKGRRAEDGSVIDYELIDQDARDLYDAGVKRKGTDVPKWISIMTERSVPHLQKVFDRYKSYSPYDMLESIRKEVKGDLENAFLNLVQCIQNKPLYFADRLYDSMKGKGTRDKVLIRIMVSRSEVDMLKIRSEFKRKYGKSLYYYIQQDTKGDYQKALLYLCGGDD

No constants are given. Whether binding was seen depends on the method and setting. In cells and extracts the contact can be indirect. Some entries that bind do so weakly or less than the wild type.

Experiment [1] deals with T1, Migration and invasion enhancer 1 (MIEN1), endogenous (human (endogenous in BT-474)) (UniProt Q9BRT3).
T1 sequence: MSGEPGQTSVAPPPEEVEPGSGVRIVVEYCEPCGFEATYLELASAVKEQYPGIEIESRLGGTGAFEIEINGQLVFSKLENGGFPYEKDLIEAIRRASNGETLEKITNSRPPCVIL
Put plainly: co-IP; endogenous proteins, BT-474 cells, NP-40 lysis buffer, protein A/G PLUS-agarose beads; immunoprecipitation of AnxA2 and reciprocal immunoprecipitation of MIEN1; IgG isotype control.

Experiment [2] addresses Annexin A2, endogenous (human (endogenous in BT-474)) (UniProt P07355). The description is as above.

“Annexin A2, endogenous (from UniProt P07355 1-339)”: the binding result in experiment [1] was “binds”.

B1: Migration and invasion enhancer 1 (MIEN1), endogenous (protein, UniProt Q9BRT3 1-115)
chain: MSGEPGQTSVAPPPEEVEPGSGVRIVVEYCEPCGFEATYLELASAVKEQYPGIEIESRLGGTGAFEIEINGQLVFSKLENGGFPYEKDLIEAIRRASNGETLEKITNSRPPCVIL
As to B1, the binding result in experiment [2] is reported as “binds”.
